These are yes or no findings as the source states them, for the method shown. In cells and extracts the contact can be indirect. These calls come from enrichment with a bait or labelling near it, and not all partners need be listed. For part of these data: Where a sequence is shown, tags or fusion partners need not be part of it. Values belong to the binder of their own block, whether it stands above or below them.
How the values were obtained:
Assay in all cases: proximity labelling
TurboID-V5-TYK2 (human) = TurboID-V5-TYK2 (human) (UniProt P29597)
[1] = molecular target: T1, TurboID-V5-IRF9 (human), Q00978; settings: remark: other sources report otherwise
T1 chain: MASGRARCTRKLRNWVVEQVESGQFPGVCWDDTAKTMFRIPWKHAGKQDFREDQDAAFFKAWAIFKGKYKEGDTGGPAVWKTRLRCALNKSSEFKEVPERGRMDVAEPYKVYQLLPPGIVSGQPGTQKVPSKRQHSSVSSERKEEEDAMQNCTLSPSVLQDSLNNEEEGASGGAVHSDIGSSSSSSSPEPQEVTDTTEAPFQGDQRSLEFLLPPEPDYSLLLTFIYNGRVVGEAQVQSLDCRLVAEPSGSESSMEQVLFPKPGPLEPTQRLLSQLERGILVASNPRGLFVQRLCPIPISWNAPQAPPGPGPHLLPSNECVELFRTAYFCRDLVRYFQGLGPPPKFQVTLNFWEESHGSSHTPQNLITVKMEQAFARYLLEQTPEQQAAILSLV

Protein sequences, listed by entry. Tags and fused reporters are not part of them.
UniProt P29597: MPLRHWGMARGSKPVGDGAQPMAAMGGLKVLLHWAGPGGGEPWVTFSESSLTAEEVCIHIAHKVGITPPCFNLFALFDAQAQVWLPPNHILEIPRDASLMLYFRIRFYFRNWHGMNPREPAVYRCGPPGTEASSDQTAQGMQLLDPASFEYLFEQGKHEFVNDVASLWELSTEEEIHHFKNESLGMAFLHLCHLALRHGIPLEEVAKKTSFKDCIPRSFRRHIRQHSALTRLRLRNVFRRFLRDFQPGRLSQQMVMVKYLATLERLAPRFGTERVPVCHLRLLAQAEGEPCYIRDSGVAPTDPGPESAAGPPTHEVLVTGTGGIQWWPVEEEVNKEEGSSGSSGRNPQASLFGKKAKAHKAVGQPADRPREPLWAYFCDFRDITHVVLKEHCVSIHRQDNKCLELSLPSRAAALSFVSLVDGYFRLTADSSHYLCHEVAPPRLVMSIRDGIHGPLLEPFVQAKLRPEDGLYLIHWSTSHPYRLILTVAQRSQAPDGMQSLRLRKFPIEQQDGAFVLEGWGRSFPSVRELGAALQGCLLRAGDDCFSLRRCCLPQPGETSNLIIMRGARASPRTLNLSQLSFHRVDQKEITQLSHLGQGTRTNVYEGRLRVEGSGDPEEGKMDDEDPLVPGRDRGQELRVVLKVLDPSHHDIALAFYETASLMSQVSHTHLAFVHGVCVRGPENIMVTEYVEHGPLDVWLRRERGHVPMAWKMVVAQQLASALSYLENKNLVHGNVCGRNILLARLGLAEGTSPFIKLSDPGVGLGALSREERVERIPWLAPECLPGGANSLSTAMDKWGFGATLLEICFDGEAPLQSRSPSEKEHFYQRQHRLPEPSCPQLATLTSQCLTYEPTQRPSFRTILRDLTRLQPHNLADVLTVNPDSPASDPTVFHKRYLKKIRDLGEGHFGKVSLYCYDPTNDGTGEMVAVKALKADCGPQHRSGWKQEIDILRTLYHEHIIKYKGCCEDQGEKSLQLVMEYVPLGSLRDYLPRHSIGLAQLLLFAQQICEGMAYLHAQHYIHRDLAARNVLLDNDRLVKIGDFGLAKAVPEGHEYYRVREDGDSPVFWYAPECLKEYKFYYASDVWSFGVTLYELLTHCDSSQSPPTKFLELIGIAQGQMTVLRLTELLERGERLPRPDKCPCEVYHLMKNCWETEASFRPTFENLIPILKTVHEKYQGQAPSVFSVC

[2] = molecular target: TurboID-V5-STAT2 (human), P52630; settings: remark: other sources report otherwise

binding (TurboID-V5-TYK2 (human)): binds
B1: PJA2 (endogenous, MRC-5/hTERT) (enzyme, UniProt O43164 1-708)
chain: MSQYTEKEPAAMDQESGKAVWPKPAGGYQTITGRRYGRRHAYVSFKPCMTRHERSLGRAGDDYEVLELDDVPKENSSGSSPLDQVDSSLPSEPIFEKSETEIPTCGSALNQTTESSQSFVAVHHSEEGRDTLGSSTNLHNHSEGEYIPGACSASSVQNGIALVHTDSYDPDGKHGEDNDHLQLSAEVVEGSRYQESLGNTVFELENREAEAYTGLSPPVPSFNCEVRDEFEELDSVPLVKSSAGDTEFVHQNSQEIQRSSQDEMVSTKQQNNTSQERQTEHSPEDAACGPGHICSEQNTNDREKNHGSSPEQVVRPKVRKLISSSQVDQETGFNRHEAKQRSVQRWREALEVEESGSDDLLIKCEEYDGEHDCMFLDPPYSRVITQRETENNQMTSESGATAGRQEVDNTFWNGCGDYYQLYDKDEDSSECSDGEWSASLPHRFSGTEKDQSSSDESWETLPGKDENEPELQSDSSGPEEENQELSLQEGEQTSLEEGEIPWLQYNEVNESSSDEGNEPANEFAQPAFMLDGNNNLEDDSSVSEDLDVDWSLFDGFADGLGVAEAISYVDPQFLTYMALEERLAQAMETALAHLESLAVDVEVANPPASKESIDGLPETLVLEDHTAIGQEQCCPICCSEYIKDDIATELPCHHFFHKPCVSIWLQKSGTCPVCRRHFPPAVIEASAAPSSEPDPDAPPSNDSIAEAP

binding [1]: binds
B2: TurboID-V5-STAT1, P42224-1 1-750 (protein)
chain: MSQWYELQQLDSKFLEQVHQLYDDSFPMEIRQYLAQWLEKQDWEHAANDVSFATIRFHDLLSQLDDQYSRFSLENNFLLQHNIRKSKRNLQDNFQEDPIQMSMIIYSCLKEERKILENAQRFNQAQSGNIQSTVMLDKQKELDSKVRNVKDKVMCIEHEIKSLEDLQDEYDFKCKTLQNREHETNGVAKSDQKQEQLLLKKMYLMLDNKRKEVVHKIIELLNVTELTQNALINDELVEWKRRQQSACIGGPPNACLDQLQNWFTIVAESLQQVRQQLKKLEELEQKYTYEHDPITKNKQVLWDRTFSLFQQLIQSSFVVERQPCMPTHPQRPLVLKTGVQFTVKLRLLVKLQELNYNLKVKVLFDKDVNERNTVKGFRKFNILGTHTKVMNMEESTNGSLAAEFRHLQLKEQKNAGTRTNEGPLIVTEELHSLSFETQLCQPGLVIDLETTSLPVVVISNVSQLPSGWASILWYNMLVAEPRNLSFFLTPPCARWAQLSEVLSWQFSSVTKRGLNVDQLNMLGEKLLGPNASPDGLIPWTRFCKENINDKNFPFWLWIESILELIKKHLLPLWNDGCIMGFISKERERALLKDQQPGTFLLRFSESSREGAITFTWVERSQNGGEPDFHAVEPYTKKELSAVTFPDIIRNYKVMAAENIPENPLKYLYPNIDKDHAFGKYYSRPKEAPEPMELDGPKGTGYIKTELISVSEVHPSRLQTTDNLLPMSPEEFDEVSRIVGSVEFDSMMNTV

binding [2]: binds
B3: TurboID-V5-IRF9, Q00978 1-393 (protein)
chain: T1 chain
